Measurements reported in PubChem BioAssay AID2685 (National Center for Advancing Translational Sciences (NCATS), 2010).
Out of some 320,000 compounds screened, about 2,100 (0.66%) were called active. Inconclusive means that the source gave no clear call. Such entries were picked first, then a sample of the others. The call rests on the fitted dose curve; in most records, active means well fitted inhibition curve with a large enough effect in the signal ratio, with a control signal flat (not every such curve was filed as active); inconclusive means small, poorly fitted or top-dose-only effect, or effect the other way, or a change in a side signal; inactive means flat fitted curve, though single readings scatter; the % refers to the signal ratio. A potency beside an inconclusive call is a rough fit, not a confirmed value.

assay: qHTS Assay for Lipid Storage Modulators in Drosophila S3 Cells; details: BODIPY lipid droplet fluorescence, 18-24 h, cells fed with added oleic acid; lipid storage change, negative = inhibition: at 46.1 µM (top of the series) unless noted
Method in brief: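 Drosophila S3 cells got compounds at several concentrations plus oleic acid (400 uM solution). Laser-scanning cytometry with 488 nm excitation read lipid droplets at 500-530 nm and cells at 575-640 nm. Percent activity was relative to 20 uM Triacsin C.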
On the % scale 0 is the no-effect control and ±100 the full control effect; potency means the concentration at half of the fitted maximal effect.

Lipid storage change, negative = inhibition, inconclusive:
Cc1ccc(S(=O)(=O)NC2=NCCC2)cc1 -0.48%
O=C(c1ccc(-n2cccn2)cc1)N1CCN(c2ncccc2C(F)(F)F)CC1 -19.8%
CCCc1cc(=O)[nH]c(SCC(=O)Nc2sc(C(N)=O)c(C)c2C(=O)OCCOC)n1 20.2%
CCOC(=O)c1c(C)[nH]c(O)c1C=Nc1ccccc1 -23.9%
S=c1[nH]nc([C@@H]2C[C@H]2c2ccccc2)n1-c1ccccc1 177%
CN(C(=O)c1ccc2c(c1)OCO2)C1(C)CCS(=O)(=O)C1 (stereo unspecified) -6.35%
Cc1ccnc(N/C=C(/NC(=O)c2ccccc2)C(=O)N/N=C\c2ccc(Cl)cc2)n1 21.5%
Brc1ccc(/C=N/Nc2ccccc2)cc1 -9.29%
CCC(=O)c1ccc(OCC(=O)OCC(=O)N2CCCc3ccccc32)cc1 -100%
CCCCn1c(=O)[nH]c(=O)c2c(C(=O)OCC)cc(-c3ccc(OC(F)F)cc3)nc21 125%
O=C(CSc1nc(-c2ccc(F)cc2)nc2ccc(F)cc12)Nc1cccc(C(=O)O)c1 31.5%
COc1cccc2sc(Nc3nc(-c4ccncc4)cs3)nc12 -13.6%
Cc1nn(C(C)c2nc(-c3ccccc3)no2)c(C)c1[N+](=O)[O-] (stereo unspecified) -54.2%
COc1ccccc1CNC(=O)CC1Sc2ccccc2NC1=O (stereo unspecified) 4.54%
C/C(CC(=O)Nc1ccc2c(c1)OCO2)=N\NC(=O)C(c1ccccc1)c1ccccc1 24.9%
COC(=O)c1c(N)sc(C(C)=O)c1C 44.5%
CC(C)n1cnc2c(Nc3cccc(Cl)c3)nc(N(CCO)CCCO)nc21 -38.8%
CC1CCCC(C)N1/N=C/C=C/c1ccccc1[N+](=O)[O-] (stereo unspecified) -64.9%
CC1CCCN(S(=O)(=O)c2ccc(NC(=O)[C@@H]3CCCN3C(=O)c3cccs3)cc2)C1 (stereo partly specified) 3.07%
NC(=S)N/N=C/c1cccc(O)c1O -30%
Cc1[nH]c2ccccc2c1C(=O)CN1CCN(c2ccc(Cl)cc2)CC1 12.7%
COc1ccc2cc(CCN3C(=O)c4ccccc4C3=O)c(=O)[nH]c2c1 21.8%
COc1cccc(-c2cc(C(=O)O)[nH]n2)c1 19.7%
Cc1ccc(N2C(=O)C3C(C2=O)C2C=CC3C23CC3)c([N+](=O)[O-])c1 (stereo unspecified) -18.3%
O=C(COC(=O)CNC(=O)c1ccc(Br)cc1)NCCC1=CCCCC1 9.89%

Potency, inconclusive:
CN1CCN(C(=S)NC(=O)c2cccc([N+](=O)[O-])c2)CC1 29.1 µM [falling, single point]
O=C(CN(CC1CCCO1)S(=O)(=O)c1ccc(S(=O)(=O)NCC2CCCO2)cc1)Nc1ccccc1 (stereo unspecified) 1.64 µM [rising, partial curve]
Cc1cccc(C(=O)NC2CC3CCCC(C2)N3C(=O)NC2CCCCC2)c1 (stereo unspecified) 29.1 µM [activator, single point]
COC(=O)/C=C/c1ccc(OC(=O)OC)c(OC(=O)OC)c1 6.51 µM [falling, single point]
CC(=NCc1ccc2c(c1)OCO2)C1=C(O)c2ccccc2C1=O 9.2 µM [activator, partial curve]
Nc1nonc1-n1nnc(C(=O)N/N=C/c2c(Cl)cccc2Cl)c1CN1CCOCC1 0.58 µM [activator, single point]
O=C1C=C(O)C(n2cncn2)C(c2cc(F)ccc2F)C1 (stereo unspecified) 35.5 µM [falling, single point]
CCOc1ccc(CCNC(=O)C2CCN(c3nn4c(=O)cc(C)nc4s3)CC2)cc1 1.16 µM [falling, single point]
O=C(COc1ccc(Br)cc1Cl)NC(=S)N1CCc2ccccc21 1.84 µM [activator, partial curve, poor fit]
COc1ccccc1NC(=O)c1ccc(NC(=O)COC(=O)CC(NC(=O)c2ccccc2Cl)c2ccccc2)cc1 (stereo unspecified) 0.58 µM [activator, full curve, poor fit]
COc1ccccc1CC(=O)NCCCc1ccccc1 18.4 µM [activator, single point]
O=C(Nc1ccc2c(c1)nc1n2CCOC1)C1CCCCC1 13 µM [activator, partial curve]
C=CCn1cc(-c2cccc(Cl)c2)cc(C#N)c1=O 7.31 µM [activator, partial curve]
COc1ccccc1NC(=O)c1cc2n(n1)C(C(F)(F)F)CC(c1ccc3c(c1)OCO3)N2 (stereo unspecified) 0.103 µM [rising, full curve, poor fit]
Cc1nn(-c2ccc(F)cc2)c(Cl)c1/C=C1\C(=O)Nc2ccccc21 6.51 µM [activator, single point]
CCOc1ccc2nc(SCC(=O)N3CCCCCC3)c(C#N)cc2c1 3.66 µM [activator, single point]
COc1ccc(N2CCN(c3ncnc4c3cnn4-c3ccc(C)cc3C)CC2)cc1 0.58 µM [activator, single point]
Cc1ccc(NC(=O)c2c([N+](=O)[O-])c(C(C)(C)C)nn2C)c(C)c1 0.092 µM [falling, full curve]
CCOc1ccc(OCC)c(NC(=O)CSc2nnc(C3CC3)n2CC)c1 5.8 µM [falling, single point]
Cc1c(NC2=CC(=O)CCC2)c(=O)n(-c2ccccc2)n1C 3.66 µM [falling, full curve, poor fit]

Pulled by structure from the list above, 2 records:
Potency, inconclusive:
CCOc1ccc(OCC)c(NC(=O)CSc2nnc(C3CC3)n2CC)c1 5.8 µM [falling, single point]
CC(=NCc1ccc2c(c1)OCO2)C1=C(O)c2ccccc2C1=O 9.2 µM [activator, partial curve]

Next part:

outcome, inactive:
CC(C)(C)c1ccc(C(=O)N2CCC3(CC2)NCCc2[nH]cnc23)cc1 inactive [at 46.1 µM]
